# Data as given in the supplement of paper PMC9135407.
# Where “and” joins values, the source holds several entries; their conditions need not be identical. Equal values may be shown once. Where a name gives a salt, the structure may show the parent alone. ± gives the standard deviation of the averaged measurements. The list shows a part of the results. Plates or batches differ in their baseline, so values are only roughly comparable.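 Culture-activated primary human stellate myofibroblasts, where regained lipid droplets signal inactivation. Value: share of Hoechst-counted cells above a per-plate Bodipy cutoff, in duplicate wells, with DMSO negative and nortriptyline positive controls on each plate. Hits: a control-normalized score above the plate's top-tenth-percentile nortriptyline wells, or one of a plate's three best wells. Final well concentrations are not given.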
# Tested on: primary human hepatic stellate cells (donor 1)
# Assay: percent Bodipy-positive cells; higher = more lipid droplet accumulation
# Conditions: 48 h
# [1] = library stock concentration: 10 mM
# [2] = library stock concentration: 3.33 mM
# [3] = library stock concentration: 1 mM
compound,measurement,setting,value
C#CCN[C@H](C)Cc1ccccc1 [R-(-)-Desmethyldeprenyl hydrochloride],percent Bodipy-positive cells,[1],48 ± 0.72%
CCCN(CCC)[C@@H]1CCc2cccc(O)c2C1 [R-(+)-8-Hydroxy-DPAT hydrobromide],percent Bodipy-positive cells,[1],52.3 ± 16%
NCC(=O)O.[C-]#[O+].[C-]#[O+].[C-]#[O+].[Cl][Ru],percent Bodipy-positive cells,[2],35.2 ± 6%
same,percent Bodipy-positive cells,[1],34.6 ± 7.5%
Cc1cc(C(=O)CN2CCCC2)c(C)n1-c1ccc(F)cc1,percent Bodipy-positive cells,[2],41 ± 12%
same,percent Bodipy-positive cells,[1],57.7 ± 4.6%
C[C@]12Cc3c[nH]nc3C[C@@H]1CC[C@@H]1[C@@H]2CC[C@@]2(C)[C@H]1CC[C@]2(C)O [Stanozolol],percent Bodipy-positive cells,library stock concentration: 6.1 mM,5.55 ± 1.3%
same,percent Bodipy-positive cells,[1],33.1 ± 19%
COc1cc2c(cc1-c1cc3cc4ccoc4cc3oc1=O)OCO2 [Pachyrrhizin],percent Bodipy-positive cells,[1],45.5 ± 10%
Cc1nnc2ccc(-c3cccc(C(F)(F)F)c3)nn12,percent Bodipy-positive cells,[1],14 ± 0.94%
C#C[C@]1(O)C=C[C@H]2[C@@H]3CCC4=CC(=O)CC[C@@H]4[C@H]3CC[C@@]21CC [Gestodene],percent Bodipy-positive cells,[2],6.45 ± 2.7%
same,percent Bodipy-positive cells,[1],15.1 ± 3.8%
CCN1C[C@]2(COC)CC[C@H](O)[C@@]34C5C[C@@H]6[C@@H](OC)C[C@](O)(C(CC23)C14)C5[C@H]6OC(C)=O (some centres undefined) [Condelphine],percent Bodipy-positive cells,,8.09 ± 0.84%
CN(C)C(=S)SSC(=S)N(C)C [Thiram],percent Bodipy-positive cells,[1],72.4 ± 17%
CCC(C)(C)O,percent Bodipy-positive cells,[1],21.3 ± 4%
Cc1cccc([C@H](C)c2c[nH]cn2)c1C [Dexmedetomidine],percent Bodipy-positive cells,[2],5.65 ± 1.4%
same,percent Bodipy-positive cells,[1],20.2 ± 0.47%
CCCN(CCC)[C@@H]1CCc2c(OC)cccc2[C@@H]1C [(+)-UH 232 maleate],percent Bodipy-positive cells,[1],15.6 ± 2.4%
CC1(C(=O)O)C2CCC(O2)C1(C)C(=O)O (centres undefined) [Cantharidic Acid],percent Bodipy-positive cells,[1],100%
CC(C)(C)NCC(O)c1ccccc1Cl (centres undefined) [Tulobuterol hydrochloride],percent Bodipy-positive cells,[1],34.03 ± 0.079%
CC(C)(C)NCC(O)c1ccccc1Cl (centres undefined) [Tulobuterol],percent Bodipy-positive cells,library stock concentration: 8.8 mM,9.05 ± 2.1%
same,percent Bodipy-positive cells,[1],41.4 ± 3.1%
C=CCN1C[C@H](C(=O)N(CCCN(C)C)C(=O)NCC)C[C@@H]2c3cccc4[nH]cc(c34)C[C@H]21 [Cabergoline],percent Bodipy-positive cells,library stock concentration: 4.4 mM,31.3 ± 1.7%
Oc1ccc2c3c1O[C@H]1c4oc5ccccc5c4C[C@@]4(O)[C@@H](C2)N(CC2CC2)CC[C@]314 [Naltriben mesylate],percent Bodipy-positive cells,library stock concentration: 4.8 mM,29.953 ± 0.024%
"CCCCC/C=C\C/C=C\C/C=C\C/C=C\CCCC(=O)NCCO [Anandamide (20:3,n-6)]",percent Bodipy-positive cells,[3],13.7 ± 11%
CCCCC/C=C\C/C=C\C/C=C\C/C=C\CCCC(=O)NCCO [Arachidonoyl Ethanolamide],percent Bodipy-positive cells,[3],11.9 ± 1.8%
"CCCCC/C=C\C/C=C\C/C=C\C/C=C\CCCC(=O)NCCO [Anandamide (22:4,n-6)]",percent Bodipy-positive cells,[3],17.9 ± 18%
"CCCCC/C=C\C/C=C\C/C=C\C/C=C\CCCC(=O)NCCO [Anandamide (20:4, n-6)]",percent Bodipy-positive cells,[3],10.9 ± 1.3%
"CCCCC/C=C\C/C=C\C/C=C\C/C=C\CCCC(=O)NCCO [Anandamide (18:2,n-6)]",percent Bodipy-positive cells,[3],11.5 ± 9.8%
O=P1(NCCCl)OCCCN1CCCl (centres undefined) [Ifosfamide],percent Bodipy-positive cells,,11.9 ± 2.1%
same,percent Bodipy-positive cells,[2],6.85 ± 1.6%
same,percent Bodipy-positive cells,library stock concentration: 7.7 mM,11.4% and 13%
same,percent Bodipy-positive cells,[1],15.4 ± 0.38%
COc1ccc(C(=O)c2c(C)n(CCN3CCOCC3)c3cc(I)ccc23)cc1,percent Bodipy-positive cells,[1],14.7 ± 5%
CC(=O)Oc1ccc(Cl)c2cccnc12 [Chloroacetoxyquinoline],percent Bodipy-positive cells,[1],45 ± 7.4%
C[C@H](N)Cn1ccc2cc(F)c(Cl)cc21.O=C(O)/C=C/C(=O)O [Ro 60-0175 fumarate],percent Bodipy-positive cells,[1],57.7 ± 7.2%
CO[C@H](C)[C@](O)(C(=O)OCC1=CCN2CC[C@H](O)[C@@H]12)C(C)C [Heliotrine],percent Bodipy-positive cells,,10.7 ± 0.15%
N#CCCN [3-Aminopropionitrile fumarate],percent Bodipy-positive cells,[1],42.2 ± 1.9%
CC(C)c1c(CN(C)C(C)Cc2ccccc2)n(C)n(-c2ccccc2)c1=O (centres undefined) [Famprofazone],percent Bodipy-positive cells,,8.68 ± 5.4%
Oc1ccc(Cl)cc1 [Parachlorophenol],percent Bodipy-positive cells,[1],16.5 ± 0.36%
same,percent Bodipy-positive cells,library stock concentration: 15.6 mM,3.81 ± 2.9%
CN1CC[C@@]2(C)c3cc(OC(=O)Nc4ccccc4)ccc3N(C)[C@@H]12 [Phenserine],percent Bodipy-positive cells,[1],70.9 ± 13%
CCCCCCCCCCCCCCCC(=O)OC[C@H](COP(=O)([O-])OCC[N+](C)(C)C)OC(=O)CCCC=O,percent Bodipy-positive cells,[3],9.86 ± 0.97%
O=[N+]([O-])C=Cc1ccc2c(c1)OCO2,percent Bodipy-positive cells,[2],97.6 ± 2.3%
same,percent Bodipy-positive cells,[1],99.67 ± 0.47%
C=C(C)[C@@H]1[C@H]2OC(=O)[C@@H]1[C@]1(O)C[C@H]3O[C@]34C(=O)O[C@H]2[C@]14C [Picrotoxinin],percent Bodipy-positive cells,,8.74 ± 2.1%
O=c1[nH]c(=O)n(Cl)c(=O)n1Cl,percent Bodipy-positive cells,[1],29 ± 13%
NC(=O)CN1CCCC1=O [Piracetam],percent Bodipy-positive cells,,30.3 ± 1.3%
same,percent Bodipy-positive cells,[2],30.3 ± 8.6%
same,percent Bodipy-positive cells,[1],10.4% and 25.5% and 24.5%
COc1cc2c(cc1OC)C(C)NCC2 (centres undefined),percent Bodipy-positive cells,,61.6 ± 8.2%
NCc1cc(O)no1 [Muscimol hydrobromide],percent Bodipy-positive cells,[1],60.1 ± 1.5%
NCc1cc(O)no1 [Muscimol],percent Bodipy-positive cells,[1],11.5 ± 0.41%
CC(=O)NBr [N-Bromoacetamide],percent Bodipy-positive cells,[1],56.5 ± 3.1%
CC1=C(O)C(=O)C=C2C1=CC=C1[C@@]2(C)CC[C@@]2(C)[C@@H]3C[C@](C)(C(=O)O)CC[C@]3(C)CC[C@]12C [Celastrol],percent Bodipy-positive cells,[3],99.56 ± 0.19%
C=C[C@]12CN(C)[C@@H]3[C@H]4CO[C@H](C[C@H]41)[C@]1(C(=O)Nc4ccccc41)[C@@H]32 [Gelsemine],percent Bodipy-positive cells,,8 ± 1.4%
CC(C)NP(=O)(NC(C)C)OP(=O)(NC(C)C)NC(C)C [Tetraisopropyl pyrophosphoramide],percent Bodipy-positive cells,[1],13.7 ± 1.4%
CC(=O)OCC(=O)[C@H]1CC[C@H]2[C@@H]3CC[C@H]4C[C@H](O)CC[C@]4(C)[C@H]3C(=O)C[C@]12C [Alfadolone acetate],percent Bodipy-positive cells,,14.5 ± 2%
C=CCc1ccccc1OCC(O)CNC1(C)CCC(C(C)(C)NC(=O)CBr)CC1 (centres undefined) [Bromoacetyl alprenolol menthane],percent Bodipy-positive cells,[1],100%
Cc1c2ccncc2c(C)c2c1[nH]c1ccccc12 [Ellipticine],percent Bodipy-positive cells,,100%
same,percent Bodipy-positive cells,[1],100%
O=S(=O)(F)Cc1ccccc1,percent Bodipy-positive cells,[2],10.3 ± 10%
same,percent Bodipy-positive cells,[1],13.2 ± 1.4%
CN[C@@H]1C[C@H]2O[C@@](C)([C@@H]1OC)n1c3ccccc3c3c4c(c5c6ccccc6n2c5c31)C(=O)NC4 [staurosporine],percent Bodipy-positive cells,library stock concentration: 10.7 mM,100%
CN1CC(CNC(=O)OCc2ccccc2)C[C@H]2c3cccc4c3c(cn4C)CC21 (some centres undefined) [Metergoline],percent Bodipy-positive cells,[1],92.2 ± 3.2%
CNCC(O)c1ccc(O)c(OC)c1 (stereo not drawn) [Metanephrine hydrochloride DL],percent Bodipy-positive cells,,22.5 ± 4.8%
Clc1ccc(C(OCCN2CCCCC2)c2ccccc2)cc1 (centres undefined) [Cloperastine hydrochloride],percent Bodipy-positive cells,,44.3 ± 1.5%
same,percent Bodipy-positive cells,[1],72.3 ± 1.7%
C[C@@H](CO)NC(=O)[C@@H]1C=C2c3cccc4[nH]cc(c34)C[C@H]2N(C)C1 [Ergonovine maleate],percent Bodipy-positive cells,library stock concentration: 4.5 mM,6.53 ± 5.6%
same,percent Bodipy-positive cells,[1],21.4 ± 15%
CCCCC/C=C\C/C=C\C/C=C\C/C=C\CCCC(=O)NCCc1c[nH]c2ccc(O)cc12 [Arachidonoyl Serotonin],percent Bodipy-positive cells,[3],6.7 ± 1.6%
O=C(O[C@H]1C[N+]2(CCCOc3ccccc3)CCC1CC2)C(O)(c1cccs1)c1cccs1 [Aclidinium Bromide],percent Bodipy-positive cells,[2],12.1 ± 1.8%
same,percent Bodipy-positive cells,[1],31.7 ± 5.2%
CC(=O)NC1CCSC1=O (racemic) [N-Acetyl-DL-homocysteine Thiolactone],percent Bodipy-positive cells,,8.04 ± 0.77%
CC(Cc1ccccc1)NCCC(c1ccccc1)c1ccccc1 (centres undefined) [Prenylamine lactate],percent Bodipy-positive cells,,76.2 ± 17%
NCCc1c[nH]c2ccccc12 [Tryptamine],percent Bodipy-positive cells,[1],57.1 ± 8.7%
NCCc1c[nH]c2ccccc12 [Tryptamine hydrochloride],percent Bodipy-positive cells,[1],59 ± 4.4%
COc1ccc(C[C@@H]2NC[C@@H](O)[C@@H]2OC(C)=O)cc1 [Anisomycin],percent Bodipy-positive cells,library stock concentration: 18.8 mM,86.1 ± 2%
CN(C(=O)Cc1ccccc1)C(CN1CCCC1)c1ccccc1 (centres undefined) [N-MPPP Hydrochloride],percent Bodipy-positive cells,[1],25.6 ± 9.1%
Cc1cc(SCc2sc(-c3ccc(C(F)(F)F)c(F)c3)nc2C)ccc1OCC(=O)O,percent Bodipy-positive cells,[3],22 ± 1.9%
same,percent Bodipy-positive cells,[2],21.4 ± 7.7%
same,percent Bodipy-positive cells,[1],24.5% and 11.2%
COc1cc2c(c(OC)c1OC)-c1ccc(O)c(=O)cc1[C@@H](N)CC2 [Trimethylcolchicinic acid],percent Bodipy-positive cells,,17.3 ± 7.5%
NC(=O)C[S+]([O-])C(c1ccccc1)c1ccccc1 (centres undefined) [Modafinil],percent Bodipy-positive cells,library stock concentration: 7.3 mM,19.3 ± 9.6%
CC(C)(C)[C@]1(O)CC2OC(=O)CC23C(=O)OC2OC(=O)[C@H](O)C231 (some centres undefined) [Bilobalide],percent Bodipy-positive cells,[2],8.18 ± 4.6%
same,percent Bodipy-positive cells,[1],9.41 ± 2.5%
C=C1[C@@H](C)[C@H]2[C@H](Cc3ccccc3)NC(=O)[C@]23OC(=O)/C=C/[C@H](O)CCC[C@@H](C)C/C=C/[C@H]3[C@@H]1O [Cytochalasin B],percent Bodipy-positive cells,library stock concentration: 10.4 mM,100%
CC[C@@H]1/C=C/C=C/C[C@H](C)[C@H](O)[C@](C)(O)C(=O)[C@H](C)[C@@H](O)[C@H](C)C(=O)[C@H](C)[C@@H](O)[C@H](C)/C=C/C(=O)O[C@H]2[C@@H](C)[C@@H](CC1)O[C@@]1(CC[C@@H](C)[C@@H](C[C@H](C)O)O1)[C@@H]2C [Oligomycin A],percent Bodipy-positive cells,[2],8.07 ± 1.1%
same,percent Bodipy-positive cells,library stock concentration: 6.3 mM,82.7 ± 13%
same,percent Bodipy-positive cells,[1],12.5 ± 1.3%
CC(=O)OCC1=C(C(=O)O)N2C(=O)[C@@H](NC(=O)CCC[C@@H](N)C(=O)O)[C@H]2SC1 [Cephalosporin c sodium],percent Bodipy-positive cells,[1],19 ± 7.9%
"CCCCC/C=C\C/C=C\C/C=C\C/C=C\CCCC(=O)N(C)C [Arachidonoyl-N,N-dimethyl amide]",percent Bodipy-positive cells,[3],7.46 ± 0.92%
O=C1CN=C(c2ccccc2)c2cc([N+](=O)[O-])ccc2N1 [Nitrazepam],percent Bodipy-positive cells,[1],5.81 ± 0.11%
O=C(Oc1ccc([N+](=O)[O-])cc1)N1CCC(C(O)(c2ccc3c(c2)OCO3)c2ccc3c(c2)OCO3)CC1,percent Bodipy-positive cells,[2],10.9 ± 2.7%
same,percent Bodipy-positive cells,[1],33.4 ± 8.6%
CCCN1CCC[C@@H](c2cccc(O)c2)C1 [S(-)-3PPP hydrochloride],percent Bodipy-positive cells,[1],29.4 ± 9.5%
CCN(CC)CCO[C@H]1CC[C@@]2(C)C(=CC[C@@H]3[C@@H]2CC[C@]2(C)C(=O)CC[C@@H]32)C1,percent Bodipy-positive cells,[3],24.2 ± 7.7%
Cc1ccc(S(=O)(=O)N[C@@H](CCCCN)C(=O)CCl)cc1 [Na-p-Tosyl-L-lysine chloromethyl ketone hydrochloride],percent Bodipy-positive cells,[1],13.7 ± 4%
Cc1ccc(S(=O)(=O)N[C@@H](CCCCN)C(=O)CCl)cc1 [Tosyllysine Chloromethyl Ketone (hydrochloride)],percent Bodipy-positive cells,[3],15.8 ± 0.9%

# Some of the entries above, set out differently:
compound | measurement | setting | value
NC(=O)CN1CCCC1=O [Piracetam] | percent Bodipy-positive cells |  | 30.3 ± 1.3%
same | percent Bodipy-positive cells | [2] | 30.3 ± 8.6%
